For 8 molecules, binding results are on record in publication PMC10350061.

The chains are these.
B1: Septin 9 (protein, UniProt Q80UG5 1-583)
chain: MKKSYSGVTRTSSGRLRRLADPTGPALKRSFEVEEIEPPNSTPPRRVQTPLLRATVASSSQKFQDLGVKNSEPAARLVDSLSQRSPKPSLRRVELAGAKAPEPMSRRTEISIDISSKQVESTASAAGPSRFGLKRAEVLGHKTPEPVPRRTEITIVKPQESVLRRVETPASKIPEGSAVPATDAAPKRVEIQVPKPAEAPNCPLPSQTLENSEAPMSQLQSRLEPRPSVAEVPYRNQEDSEVTPSCVGDMADNPRDAMLKQAPASRNEKAPMEFGYVGIDSILEQMRRKAMKQGFEFNIMVVGQSGLGKSTLINTLFKSKISRKSVQPTSEERIPKTIEIKSITHDIEEKGVRMKLTVIDTPGFGDHINNENCWQPIMKFINDQYEKYLQEEVNINRKKRIPDTRVHCCLYFIPATGHSLRPLDIEFMKRLSKVVNIVPVIAKADTLTLEERVYFKQRITADLLSNGIDVYPQKEFDEDAEDRLVNEKFREMIPFAVVGSDHEYQVNGKRILGRKTKWGTIEVENTTHCEFAYLRDLLIRTHMQNIKDITSNIHFEAYRVKRLNEGNSAMANGIEKEPEAQEM
B2: Homer protein homologue (protein, UniProt Q99JP6 1-356)
chain: MSTAREQPIFSTRAHVFQIDPTTKRNWIPAGKHALTVSYFYDATRNVYRIISIGGAKAIINSTVTPNMTFTKTSQKFGQWADSRANTVYGLGFASEQQLTQFAEKFQEVKEAARLAREKSQDGGEFTSTGLALASHQVPPSPLVSTNGPGEEKLFRSQSADTPGPTERERLKKMLSEGSVGEVQWEAEFFALQDSNQRLAGALREANAAATQWRQQLEVQRAEAELLRQRVAELEAQVAVEPVRAGEKEATSQSVEQLEARVQTKDQTLKNQSTGTREAPDTAEREETQQQVQDLETRNAELEQQLRSMECNLEEARAERERARAEVGRAAQLLDVRLFELSELREGLARLAEAAP
B3: Septin 7 (protein, UniProt O55131 1-436)
chain: MSVSARSAAAEERSVNCGTMAQPKNLEGYVGFANLPNQVYRKSVKRGFEFTLMVVGESGLGKSTLINSLFLTDLYSPEYPGPSHRIKKTVQVEQSKVLIKEGGVQLLLTIVDTPGFGDAVDNSNCWQPVIDYIDSKFEDYLNAESRVNRRQMPDNRVQCCLYFIAPSGHGLKPLDIEFMKRLHEKVNIIPLIAKADTLTPEECQQFKKQIMKEIQEHKIKIYEFPETDDEEENKLVKKIKDRLPLAVVGSNTIIEVNGKRVRGRQYPWGVAEVENGEHCDFTILRNMLIRTHMQDLKDVTNNVHYENYRSRKLAAVTYNGVDNNKNKGQLTKSPLAQMEEERREHVAKMKKMEMEMEQVFEMKVKEKVQKLKDSEAELQRRHEQMKKNLEAQHKELEEKRRQFEEEKANWEAQQRILEQQNSSRTLEKNKKKGKIF
B4: E3 ubiquitin ligase Traf7 (enzyme, UniProt Q922B6 1-594)
chain: MPPINTPRRSDSAISVRSLHSESSMSLRSTFSLPEEEEEPEPLVFAEQPSVKLCCQLCCSVFKDPVITTCGHTFCRRCALKSEKCPVDNAKLTVVVNNIAVAEQIGELFIHCRHGCHAAGTGKPGVFEVDPRGCPFTIKLSARKDHESSCDYRPVRCPNNPSCPPLLKMNLEAHLKECEHIKCPHSKYGCTFIGNQDTYETHLETCRFEGLKEFLQQTDDRFHEMHVALAQKDQEIAFLRSMLGKLSEKIDQLEKSLELKFDVLDENQSKLSEDLMEFRRDASMLNDELSHINARLNMGILGSYDPQQIFKCKGTFVGHQGPVWCLCVYSMGDLLFSGSSDKTIKVWDTCTTYKCQKTLEGHDGIVLALCIQGCKLYSGSADCTIIVWDIQNLQKVNTIRAHDNPVCTLVSSHNMLFSGSLKAIKVWDIVGTELKLKKELTGLNHWVRALVAAQSYLYSGSYQTIKIWDIRTLDCIHVLQTSGGSVYSIAVTNHHIVCGTYENLIHVWDIESKEQVRTLTGHVGTVYALAVISTPDQTKVFSASYDRSLRVWSMDNMICTQTLLRHQGSVTALAVSRGRLFSGAVDSTVKVWTC
B5: Septin 10 (protein, UniProt Q8C650 1-452)
chain: MASCDEIKEHPRSLSMCGHVGFESLPDQLVDRSIEQGFCFNILCVGETGIGKSTLINTLFNTNFEELESSHFCPCVRLRAQTYELQESNVRLKLTIVNTVGFGDQINKEDSYQPIVDYIDDQFEAYLQEEVKIKRALFNYHDSRIHVCLYFIAPTGHSLRTLDLLTMKSLDNKVNIIPLIAKADTISKSELQKFKMKLMNELVINGVQIYQFPTDDDTTSKINGAMNGHLPFAVVGSMDEIKVGNKMVKGRQYPWGIVQVENENHCDFVKLREMLICTNMEDLREQTHMRHYELYRRCKLQEMGFVDMGPENKPLSLQETYEAKRHEFYGERQRKEEQMKQMFVQRVKEKEAILKEAERELQAKFEHLKRIHQEERMKLEEKRRMLEEESVAFAKKKATCELFPNQSFLASGSSIRKDKDRKKADGASAFCDCLTAQESVRLCISSPRKDMD
B6: Nuclear-interacting partner of Alk (protein, UniProt Q80YV2 1-501)
chain: MAATSEGPLFAASIEKTWGSVVRSPEGTPQKVRELIDEGIVPEEGGTEPKDTAATFQSVDGSPQAEQSPLESTSKEAFFHRVETFSSLKWAGKPPELSPLICAKYGWVTVECDMLKCSSCQAFLCASLQPTFDFGRYKERCAELKKSLCSAHEKFCFWPDSPSPDRFGMLPLGEPAVLISEFLDRFQSLCHLDLQLPSLRPEDLKTMCLTEDAVSALLHLLEDELDFHADDRKTTSKLGSDVQVQATACVLSLCGWACSSLEPTQLSLITCYQCMRKVGLWGFQQIESSMTDLEASFGLTSSPIPGVEGRPEHFPLVPESPRRMMTRSQDATVSPGSEQSEKSPGPIVSRTRSWESSSPVDRPELEAASPTTRSRPVTRSMGTGDSAGVEVPSSPLRRTKRARLCSSSSSDTSPRSFFDPTSQHRDWCPWVNITLVKETKENGETEVDACTPAEPGWKAVLTILLAHKRSNQPAETDSMSLSEKSRKVFRIFRQWESSSSS
B7: cAMP specific 3-5-cyclic phosphodiesterase 4D (enzyme, UniProt Q01063 1-747)
chain: MERDTCDVLSRSKSASEETLHSCNEEEDPFRGMEPYLVRRLSSRSIQLPPLAFRQLEQADLRSESENIPRPTSLPLKILPLIAVTSADSSGFDVDNGTSAGRSPLDPMTSPGSGLILQANFVHSQRRESFLYRSDSDYDLSPKSMSRNSSIASDIHGDDLIVTPFAQVLASLRTVRNNFAALTNLQDRAPSKRSPMCNQPSINKATITEEAYQKLASETLEELDWCLDQLETLQTRHSVSEMASNKFKRMLNRELTHLSEMSRSGNQVSEYISNTFLDKQHEVEIPSPTQKEKEKKKRPMSQISGVKKLMHSSSLTNSCIPRFGVKTEQEDVLAKELEDVNKWGLHVFRIAELSGNRPLTVIMHTIFQERDLLKTFKIPVDTLITYLMTLEDHYHADVAYHNNIHAADVVQSTHVLLSTPALEAVFTDLEILAAIFASAIHDVDHPGVSNQFLINTNSELALMYNDSSVLENHHLAVGFKLLQEENCDIFQNLTKKQRQSLRKMVIDIVLATDMSKHMNLLADLKTMVETKKVTSSGVLLLDNYSDRIQVLQNMVHCADLSNPTKPLQLYRQWTDRIMEEFFRQGDRERERGMEISPMCDKHNASVEKSQVGFIDYIVHPLWETWADLVHPDAQDILDTLEDNREWYQSTIPQSPSPAPDDQEEGRQGQTEKFQFELTLEEDCESDTEKDSGSQVEEDTSCSDSKTLCTQDSESTEIPLDEQVEEEAVAEEESQPETCVPDDCCPDT
B8: Septin 2 (protein, UniProt P42208 1-361)
chain: MSKQQPTQFINPETPGYVGFANLPNQVHRKSVKKGFEFTLMVVGESGLGKSTLINSLFLTDLYPERIIPGAAEKIERTVQIEASTVEIEERGVKLRLTVVDTPGYGDAINCRDCFKTIISYIDEQFERYLHDESGLNRRHIIDNRVHCCFYFISPFGHGLKPLDVAFMKAIHNKVNIVPVIAKADTLTLKERERLKKRILDEIEEHSIKIYHLPDAESDEDEDFKEQTRLLKASIPFSVVGSNQLIEAKGKKVRGRLYPWGVVEVENPEHNDFLKLRTMLITHMQDLQEVTQDLHYENFRSERLKRGGRKVENEDMNKDQILLEKEAELRRMQEMIARMQAQMQMQMQGGDSDSGALGQHV

These are yes or no findings as the source states them, for the method shown. Binding seen in cells or lysates may run through a third protein. Here binding means that the protein was enriched with, or labelled near, the bait; the list need not be complete.

This test has as its target Numb (mouse (endogenous in C2C12)). The experiment in a line: affinity purification with mass spectrometry; endogenous Numb precipitated with goat polyclonal anti-Numb (Abcam Ab4147) and Protein A/G Plus from lysate of 5-day differentiated C2C12 myotubes; 25 mM Tris HCl pH 7.2, 150 mM NaCl, 1 mM EDTA, 5% glycerol, 0.1% Triton X-100, 4 °C; goat IgG as control; eluted with 0.3% SDS at 37 °C; LC/MS/MS; seven independent samples.
As to B1, the binding result is “binds”.

With B2, the binding entry was “binds”.

Regarding B3, the binding entry is given as “binds”.

With B4, the binding result is “binds”.

B5: the binding result was “binds”.

In the case of B6, the binding entry is listed as “binds”.

Take B7: the binding entry is “binds”.

With B8, the binding entry is “binds”.
